# According to US20050142634A1, “Novel modulator of non-genomic activity of nuclear receptors (mnar) and uses thereof” (Wyeth, priority 2001, published 2005):
# Protein sequences, listed by entry. Tags and fused reporters are not part of them. Residues count along the entry.
# UniProt Q92731, residues 248-530: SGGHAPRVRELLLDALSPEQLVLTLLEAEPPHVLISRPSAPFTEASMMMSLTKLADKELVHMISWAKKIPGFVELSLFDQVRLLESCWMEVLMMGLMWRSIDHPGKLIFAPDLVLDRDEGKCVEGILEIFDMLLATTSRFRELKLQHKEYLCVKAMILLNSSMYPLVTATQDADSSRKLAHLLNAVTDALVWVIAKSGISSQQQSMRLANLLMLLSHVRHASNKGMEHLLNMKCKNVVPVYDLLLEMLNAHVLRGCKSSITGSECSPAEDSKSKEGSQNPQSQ
# UniProt Q15648: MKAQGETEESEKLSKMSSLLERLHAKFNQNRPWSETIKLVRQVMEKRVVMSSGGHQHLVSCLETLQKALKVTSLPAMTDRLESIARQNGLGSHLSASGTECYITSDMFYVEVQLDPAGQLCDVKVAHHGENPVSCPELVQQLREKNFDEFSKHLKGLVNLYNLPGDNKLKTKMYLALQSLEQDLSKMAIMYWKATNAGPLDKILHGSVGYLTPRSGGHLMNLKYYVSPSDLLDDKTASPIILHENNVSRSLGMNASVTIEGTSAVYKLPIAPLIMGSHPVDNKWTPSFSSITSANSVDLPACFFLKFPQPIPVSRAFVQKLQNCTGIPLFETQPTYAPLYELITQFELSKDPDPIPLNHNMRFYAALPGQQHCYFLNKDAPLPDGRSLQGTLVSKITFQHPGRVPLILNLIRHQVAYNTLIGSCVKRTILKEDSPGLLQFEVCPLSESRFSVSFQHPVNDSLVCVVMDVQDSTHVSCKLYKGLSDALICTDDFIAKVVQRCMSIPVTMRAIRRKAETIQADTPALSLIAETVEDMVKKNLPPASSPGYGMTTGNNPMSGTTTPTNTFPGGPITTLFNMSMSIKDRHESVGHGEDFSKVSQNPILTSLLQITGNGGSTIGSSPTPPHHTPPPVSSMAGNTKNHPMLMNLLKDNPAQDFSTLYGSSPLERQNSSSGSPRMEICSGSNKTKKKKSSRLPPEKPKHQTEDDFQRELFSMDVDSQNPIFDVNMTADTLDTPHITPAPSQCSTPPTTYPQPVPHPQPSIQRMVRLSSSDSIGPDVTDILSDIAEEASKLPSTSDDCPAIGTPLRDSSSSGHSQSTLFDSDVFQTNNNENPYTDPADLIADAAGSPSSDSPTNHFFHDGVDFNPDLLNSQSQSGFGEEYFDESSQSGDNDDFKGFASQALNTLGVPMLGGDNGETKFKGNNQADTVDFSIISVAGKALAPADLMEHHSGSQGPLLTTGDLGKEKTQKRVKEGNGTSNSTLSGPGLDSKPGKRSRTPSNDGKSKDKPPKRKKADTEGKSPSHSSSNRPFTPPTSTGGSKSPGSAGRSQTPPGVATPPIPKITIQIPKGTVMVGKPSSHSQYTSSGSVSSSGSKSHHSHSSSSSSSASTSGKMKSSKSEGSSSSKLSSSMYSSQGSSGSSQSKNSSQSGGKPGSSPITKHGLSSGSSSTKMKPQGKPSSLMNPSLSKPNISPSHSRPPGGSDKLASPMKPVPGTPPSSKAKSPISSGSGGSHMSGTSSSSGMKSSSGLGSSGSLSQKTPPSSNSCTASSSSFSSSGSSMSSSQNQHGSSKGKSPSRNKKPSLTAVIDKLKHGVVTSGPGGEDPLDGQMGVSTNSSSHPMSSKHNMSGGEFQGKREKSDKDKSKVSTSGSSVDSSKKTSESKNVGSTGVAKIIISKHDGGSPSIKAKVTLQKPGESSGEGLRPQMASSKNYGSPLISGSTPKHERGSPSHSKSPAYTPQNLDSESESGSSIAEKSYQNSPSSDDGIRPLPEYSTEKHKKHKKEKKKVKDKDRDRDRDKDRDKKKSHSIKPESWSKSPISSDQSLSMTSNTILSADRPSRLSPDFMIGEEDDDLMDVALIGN
# UniProt Q9Y6Q9, residues 2-1424: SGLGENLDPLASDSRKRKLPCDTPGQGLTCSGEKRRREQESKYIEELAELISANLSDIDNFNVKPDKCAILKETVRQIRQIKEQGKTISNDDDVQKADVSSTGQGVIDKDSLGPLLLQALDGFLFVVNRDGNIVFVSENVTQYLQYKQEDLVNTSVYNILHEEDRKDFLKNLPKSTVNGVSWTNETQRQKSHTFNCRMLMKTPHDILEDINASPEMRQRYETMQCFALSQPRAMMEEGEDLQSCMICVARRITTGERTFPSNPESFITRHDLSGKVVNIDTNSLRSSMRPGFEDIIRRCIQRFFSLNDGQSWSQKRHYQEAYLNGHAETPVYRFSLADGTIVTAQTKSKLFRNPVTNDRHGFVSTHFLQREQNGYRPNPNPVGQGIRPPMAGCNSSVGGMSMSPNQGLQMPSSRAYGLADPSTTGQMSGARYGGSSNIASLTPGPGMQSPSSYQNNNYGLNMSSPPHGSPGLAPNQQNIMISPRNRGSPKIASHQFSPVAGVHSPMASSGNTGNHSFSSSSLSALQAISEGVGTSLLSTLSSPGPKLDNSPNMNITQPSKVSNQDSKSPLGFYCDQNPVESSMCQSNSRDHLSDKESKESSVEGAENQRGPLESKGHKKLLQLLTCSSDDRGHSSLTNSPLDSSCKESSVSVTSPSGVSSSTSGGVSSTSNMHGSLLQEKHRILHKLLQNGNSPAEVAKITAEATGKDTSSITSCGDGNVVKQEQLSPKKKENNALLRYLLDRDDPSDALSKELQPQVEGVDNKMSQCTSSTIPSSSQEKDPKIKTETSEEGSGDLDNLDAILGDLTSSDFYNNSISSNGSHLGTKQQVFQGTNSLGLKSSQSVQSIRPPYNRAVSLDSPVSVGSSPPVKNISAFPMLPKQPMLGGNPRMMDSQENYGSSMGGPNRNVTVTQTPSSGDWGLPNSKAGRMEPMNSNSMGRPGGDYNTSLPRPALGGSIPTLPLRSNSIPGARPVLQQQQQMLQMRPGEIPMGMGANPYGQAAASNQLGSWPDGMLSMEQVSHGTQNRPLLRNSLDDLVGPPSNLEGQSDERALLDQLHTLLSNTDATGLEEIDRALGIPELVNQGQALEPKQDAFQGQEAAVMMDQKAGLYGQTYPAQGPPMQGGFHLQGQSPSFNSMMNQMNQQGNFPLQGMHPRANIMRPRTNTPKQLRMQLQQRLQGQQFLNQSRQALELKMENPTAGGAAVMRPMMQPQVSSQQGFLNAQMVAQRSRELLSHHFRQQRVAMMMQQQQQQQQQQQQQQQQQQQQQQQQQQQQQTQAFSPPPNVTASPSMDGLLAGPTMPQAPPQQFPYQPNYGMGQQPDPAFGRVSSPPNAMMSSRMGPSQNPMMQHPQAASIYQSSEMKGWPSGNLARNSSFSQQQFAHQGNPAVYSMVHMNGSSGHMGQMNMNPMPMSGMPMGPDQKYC
# These are yes or no findings as the source states them, for the method shown. In cells and extracts the contact can be indirect. Here binding means that the protein was enriched with, or labelled near, the bait; the list need not be complete.
# Biological target: GST-ERβ-LBD (UniProt Q92731)
# Experiment: GST pull-down from MCF-7 cell extract; bands with ligand-dependent interaction identified by mass spectrometry
row,Substance,binding
1,DRIP205 (from UniProt Q15648 1-1581),binds
2,SRC3 (from UniProt Q9Y6Q9 2-1424),binds
